Assay results from paper PMC4417968.
Results are given in words; binding and its absence hold for the method and conditions named.

How the values were obtained:
Experiment in all cases: SEC; 25 uM previously purified monomeric fractions incubated in 50 mM phosphate buffer pH 8.0; TSK-Gel G2000 SWXL column equilibrated at pH 8.0, 0.5 mL/min; both purified
[1] = target: diphtheria toxin T domain single mutant E362Q (UniProt P00588)
[2] = target: diphtheria toxin translocation domain (T domain), wild-type (UniProt P00588)
[3] = target: diphtheria toxin T domain double mutant E349Q/D352N (UniProt P00588)

diphtheria toxin T domain single mutant E362Q (from UniProt P00588 234-410) (domain or fragment)
binding [1]: no binding (condition: at pH 8.0 (25 uM))

diphtheria toxin translocation domain (T domain), wild-type (from UniProt P00588 234-410) (domain or fragment)
binding [2]: no binding (tested: 25 uM)

diphtheria toxin T domain double mutant E349Q/D352N (from UniProt P00588 234-410) (domain or fragment)
binding [3]: no binding (condition: at pH 8.0 (25 uM))
